The target of test [1] is recombinant His-tag rCRKL-SH3 (C) domain (Homo sapiens (Human)) (UniProt P46109). The experiment in a line: ELISA, His-tag protein on coated synthetic peptide (FIG. 3A).
Test [2] deals with recombinant His-tag rCRKL-SH3 (N) domain (Homo sapiens (Human)) (UniProt P46109). Described as above.
Test [3] has as its target CRKL of DU145 cells (cell extract, membrane fraction, cell surface or serum-free condition medium) (human) (UniProt P46109). The experiment in a line: gst-resin affinity column, DU145 serum-free condition medium, Western blot. On the technique in general: In western blotting, separated proteins are transferred to a membrane and probed.

By UniProt entry, the sequences of proteins in these tests, tags left out. Where a name states a change or a piece, a line headed by the entry shows the natural chain unless it says otherwise.
UniProt P46109: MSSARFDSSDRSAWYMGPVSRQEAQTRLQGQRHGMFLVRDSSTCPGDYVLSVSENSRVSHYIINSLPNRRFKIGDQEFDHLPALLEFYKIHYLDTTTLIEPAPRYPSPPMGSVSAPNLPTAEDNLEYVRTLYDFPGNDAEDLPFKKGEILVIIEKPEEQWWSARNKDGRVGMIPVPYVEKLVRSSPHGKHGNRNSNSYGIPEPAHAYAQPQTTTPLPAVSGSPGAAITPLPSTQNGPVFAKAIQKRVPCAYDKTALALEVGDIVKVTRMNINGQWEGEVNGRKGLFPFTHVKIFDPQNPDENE

These are yes or no findings as the source states them, for the method shown. Some results given as binding are weak or reduced against the parent protein; the word gives no strength. For part of these data: Tags and fused reporters may be left off the sequences shown.

Take YRCTLNSPFFWEDMTHECHA (cyclic Cys-Cys disulfide bridge (peptides were synthesized and cyclized)) [synthetic tumor-homing peptide … (SEQ ID NO:1)]: the binding entry in test [1] and in test [2] was “binds” throughout.

As for YRCTLNSPFFWEDMTHECHA (peptide, not shown: a dimerising Fc or GST) [recombinant gst-tag fusion protein expressing the tumor-homing peptide], the binding result in test [3] is given as “binds”.

(Values after US20110189095A1, “CRKL TARGETING PEPTIDES” (The Board of Regents, of the University of Texas System, priority 2008, published 2011).)
